Measurements reported in PubChem BioAssay AID1224828 (NIAID, 2016).

Assay: 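Knock-downs that increase or decrease LPS-induced p65 nuclear translocation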 (primary screen)
System: mouse RAW264.7 G9 macrophage reporter cells (GFP-p65, Tnf promoter-mCherry)
Knock-down reagent: siRNA pool against mouse genes, 100 nM
Timing: 2 days siRNA transfection, then 40 min LPS before fixation
Conditions: LPS (Salmonella minnesota R595) at 10 ng/ml
Read-out: 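Imaged p65 nuclear translocation ratio, normalised to the plate median, converted to robust z-scores and averaged across two replicates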
Reading the numbers: p65 translocation robust z-score: higher = more nuclear NF-kappaB p65 after LPS than the plate median; nuclear/cytoplasmic p65 ratio: higher = more nuclear NF-kappaB p65
Call rule: 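Called active when z exceeds 3.3 or falls under -1.56 (median of Tlr4 controls), giving activity score of at least 50; no calls for control wells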
Meaning of the calls: active = hit (p65 shift raised or lowered); inactive = no clear change
This is a random part of about 17,000 reagents tested. In the full data, 762 (4.5%) were called active. 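Active calls include both raised and lowered p65 entry, mostly lowered; wells with fewer than 50 cells lack a z-score.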 Raw values vary from plate to plate and are shown uncorrected. Entries without a mark were called inactive. Some reagents were tested in more than one well and are listed for each.

no.	gene	p65 translocation robust z-score	nuclear/cytoplasmic p65 ratio, rep 1	nuclear/cytoplasmic p65 ratio, rep 2	low cell count flag
1	Saa3	-0.52	1.33	1.17	enough cells to score
2	Cox7b2	0.49	1.35	1.33	enough cells to score
3	Ptpn9	-0.73	1.39	1.32	enough cells to score
4	Tra2b	-1.29	1.18	1.15	enough cells to score
5	Tra2b		1.21	1.21	fewer than 50 cells per well; well left out of scoring
6	Lcp1	0.16	1.62	1.41	enough cells to score
7	Cavin4		1.49	1.6	fewer than 50 cells per well; well left out of scoring
8	Stk38l	0.94	1.49	1.5	enough cells to score
9	Mgat5	0.93	1.81	1.73	enough cells to score
10	Cblc	-0.32	1.36	1.34	enough cells to score
11	Smg6	-0.11	1.71	1.52	enough cells to score
12	Zfp512	-0.62	1.36	1.15	enough cells to score
13	Gimap7	-0.91	1.47	1.27	enough cells to score
14	Zfp273	1.31	1.57	1.77	enough cells to score
15	Smchd1		1.25	1.46	fewer than 50 cells per well; well left out of scoring
16	Resp18	-0.87	1.31	1.12	enough cells to score
17	Or6b2	0.42	1.68	1.47	enough cells to score
18	Sik2	-0.75	1.61	1.25	enough cells to score
19	Hnrnpk	0.02	1.36	1.45	enough cells to score
20	Ank2	0.8	1.75	1.78	enough cells to score
21	Trim29	-0.04	1.36	1.11	enough cells to score
22	Cnot9	0.21	1.56	1.36	enough cells to score
23	Ppp1r14d	1.17	1.67	1.56	enough cells to score
24	Avpr2	-1.48	1.28	1.38	enough cells to score

Next part (3 carried over from the part before).
no.	gene	p65 translocation robust z-score	nuclear/cytoplasmic p65 ratio, rep 1	nuclear/cytoplasmic p65 ratio, rep 2	low cell count flag
22	Cnot9	0.21	1.56	1.36	enough cells to score
23	Ppp1r14d	1.17	1.67	1.56	enough cells to score
24	Avpr2	-1.48	1.28	1.38	enough cells to score
25	Cpsf4l	0.02	1.6	1.77	enough cells to score
26	Hnf4aos	0.83	1.68	1.54	enough cells to score
27	Reep5		1.22	1.56	fewer than 50 cells per well; well left out of scoring
28	Lsm4	0.89	1.78	1.74	enough cells to score
29	Sfpq	-1.08	1.38	1.42	enough cells to score
30	Lynx1	0.93	1.91	1.64	enough cells to score
31	Fbxo16	0.67	1.78	1.47	enough cells to score
32	Loxl1	1.62	1.86	1.88	enough cells to score
33	Lcn6	-1.1	1.31	1.35	enough cells to score
34	Nyap2	1.51	1.61	1.76	enough cells to score
35	Aldh18a1	-1.5	1.41	1.22	enough cells to score
36	Snx14	0.78	1.42	1.32	enough cells to score
37	Fahd1	0.26	1.65	1.66	enough cells to score
38	Galnt5		1.21	1.13	fewer than 50 cells per well; well left out of scoring
39	Ncoa7	0.14	1.65	1.62	enough cells to score
40	Map3k3	-0.27	1.62	1.36	enough cells to score
